Experimental findings from patent publication US10160738B2, “Neuroactive substituted cyclopent[a]anthracenes as modulators for GABA type-A receptors” (priority 2013, dated 2018) are described below.

For series [1], the system named is picrotoxin binding site on GABAA receptors. Nature of the series: [35S]-TBPS displacement (inhibition of [35S]-TBPS binding). The settings on record: Hill coefficient; ± SEM. Here is the method:
The IC50 values for non-competitive displacers of [^35S]-TBPS from the picrotoxin binding site on GABAA receptors are reported in Table 1.
Results presented are from duplicate experiments performed in triplicate. Error limits are calculated as standard error of the mean. Methods used are known in the art (see Jiang, X., et al., Neurosteroid analogues. 9. Conformationally constrained pregnanes: structure-activity studies of 13,24-cyclo-18,21-dinorcholane analogues of the GABA modulatory and anesthetic steroids (3α,5α)- and […]. J. Med. Chem., 46: 5334-48 (2003)—the contents of which are hereby incorporated by reference in their entirety).

Another series has as its system tadpole. The series can be described thus: Tadpole loss of righting reflex (LRR) and loss of swimming reflex (LSR). The settings on record: Hill coefficient, ± SEM; for Tadpole LRR nHill: loss of righting reflex; for Tadpole LSR nHill: loss of swimming reflex. The class given is in vivo. Here is the method: Table 3 discloses the anesthetic effects of the compounds of the present disclosure. In particular, the anesthetic effect of the compounds of the present disclosure on Loss of Righting Reflex (LRR) and Loss of Swimming Reflex (LSR).
Methods used are known in the art (see Jiang, X., et al.). Error limits are calculated as standard error of the mean (N=10 or more animals at each of five or more different concentrations).

For the molecule `C[C@]12CC[C@@H]3C[C@@H]4C[C@@H](O)CC[C@H]4C[C@H]3[C@@H]1CC[C@@H]2C#N` [MQ-77, (3S,3aS,5aR,6aR,8S,10aS,11aR,11bS)-Hexadecahydro-8-hydroxy-3a-methyl-cyclopent[a]anthracene-3-carbonitrile], the “Inhibition of [35S]-TBPS Binding nHill” value in series [1] was found to be 0.88 ± 0.19. Also, in the series on tadpole, the “Tadpole LRR nHill” value is on record as −1.84 ± 0.31 and the “Tadpole LSR nHill” value is −36.4 ± 0.1.
For `C[C@]12CC[C@@H]3C[C@@H]4C[C@@H](O)CC[C@H]4C[C@H]3[C@@H]1CCC2=O` [MQ-74, (3aS,5aR,6aR,8S,10aS,11aR,11bS)-Hexadecahydro-8-hydroxy-3a-methyl-cyclopent[a]anthracen-3-one], the “Inhibition of [35S]-TBPS Binding nHill” value in series [1] is on record as 1.02 ± 0.15. For the same molecule, the “Tadpole LRR nHill” value in the series with tadpole is −15.6 ± 1.8.
`C[C@@]12CC[C@H]3C[C@H]4C[C@H](O)CC[C@@H]4C[C@@H]3[C@H]1CC[C@]21CO1` [MQ-65, (2′R,3R,3aR,5aS,6aS,8R,10aR,11aS,11bR)-Hexadecahydro-3a-methyl-spiro[3H-cyclopent[a]anthracene-3,2′-oxiran]-8-ol]: the “Inhibition of [35S]-TBPS Binding nHill” value in series [1] is recorded as 0.78 ± 0.14. Besides, in the series on tadpole, the “Tadpole LRR nHill” value is −2.42 ± 0.24 and the “Tadpole LSR nHill” value is given as −33.2 ± 0.2.
For `C[C@]12CC[C@@H]3C[C@@H]4C[C@@H](O)CC[C@H]4C[C@H]3[C@@H]1CC[C@@]21CO1` [MQ-75, (2′S,3S,3aS,5aR,6aR,8S,10aS,11aR,11bS)-Hexadecahydro-3a-methyl-spiro[3H-cyclopent[a]anthracene-3,2′-oxiran]-8-ol], in that order: 1.99 ± 0.30, −1.71 ± 0.42 and −15.9 ± 0.5.
As for `C[C@@]12CC[C@H]3C[C@H]4C[C@H](O)CC[C@@H]4C[C@@H]3[C@H]1CCC2=O` [MQ-64, (3aR,5aS,6aS,8R,10aR,11aS,11bR)-Hexadecahydro-8-hydroxy-3a-methyl-3H-cyclopent[a]anthracen-3-one], in series [1], the “Inhibition of [35S]-TBPS Binding nHill” value is reported as 1.13 ± 0.10. In the series on tadpole, the “Tadpole LRR nHill” value is −15.5 ± 1.0.
With `C[C@]12CC[C@@H]3C[C@@H]4C[C@@H](O)CC[C@H]4C[C@H]3[C@@H]1CC=C2C#N` [MQ-76, (3aS,5aR,6aR,8S,10aS,11aR,11bS)-8-Hydroxy-3a-methyl-3a,4,5,5a,6,6a,7,8,9,10,10a,11,11a,11b-Tetradecahydro-1H-cyclopent[a]anthracene-3-carbonitrile], the “Inhibition of [35S]-TBPS Binding nHill” value in series [1] worked out at 1.04 ± 0.22. In addition, in the series on tadpole, the “Tadpole LRR nHill” value is recorded as −2.31 ± 0.08 and the “Tadpole LSR nHill” value is recorded as −36.3 ± 0.1.
On to `C[C@@]12CC[C@H]3C[C@H]4C[C@H](O)CC[C@@H]4C[C@@H]3[C@H]1CC=C2C#N` [MQ-81, (3aR,5aS,6aS,8R,10aR,11aS,11bR)-8-Hydroxy-3a-methyl-3a,4,5,5a,6,6a,7,8,9,10,10a,11,11a,11b-Tetradecahydro-1H-cyclopent[a]anthracene-3-carbonitrile], for which, in series [1], the “Inhibition of [35S]-TBPS Binding nHill” value came to 1.54 ± 0.16. In addition, in the series with tadpole, the “Tadpole LRR nHill” value is −2.94 ± 0.28 and the “Tadpole LSR nHill” value is reported as −36.4 ± 0.1.
As for `C[C@@]12CC[C@H]3C[C@H]4C[C@H](O)CC[C@@H]4C[C@@H]3[C@H]1CC(=O)C2` [MQ-82, (3aS,5aS,6aS,8R,10aR,11aS,11bR)-8-Hydroxy-3a-methyl-hexadecahydro-2H-cyclopenta[a]anthracen-2-one], in series [1], the “Inhibition of [35S]-TBPS Binding nHill” value came to 1.09 ± 0.16. In the series on tadpole, the “Tadpole LRR nHill” value is reported as −15.6 ± 1.1 and the “Tadpole LSR nHill” value was −27.0 ± 0.0.
